# The exact form of at least one protein or probe is not confirmed. At least one verdict rests on a figure or table, not on a statement of the authors.
# Tested on: XRCC1 + DNA polymerase lambda (Pol λ)
# Assay: fluorescence microscopy (colocalization in microphases)
# Conditions: 5'-phosphate on downstream strand (5' margin of gap); activity assay: 50 mM Tris-HCl pH 7.5, 5 mM Mg2+, 0.5 mM DTT, 0.25 mg/mL BSA; recombinant protein; protein details: His-tag,His-tag; label: 5'-FAM on upstream strand
sequence,measurement,value
GGCGATTAAGTTGGG / AACGTCAGGGTCTTCC / GGAAGACCCTGACGTTGCCCAACTTAATCGCC [FAM-gap-DNA],binding result,binds

# From paper PMC11241748, “DNA Repair Protein XRCC1 Stimulates Activity of DNA Polymerase λ under Conditions of Microphase Separation”
